Experimental data taken from patent US12595239B2, “Substituted isoxazoline derivatives” (BASF SE, priority 2021, dated 2026).
Some entries share one result that the patent states for a list of compounds. For at least one compound, name, drawing or mass did not settle the structure.

Tests used:
Assay type in all cases: in vivo
[1] = tested on: Aedes aegypti; settings: 2500 ppm; larval mortality, 2 days
[2] = tested on: Dichromothrips corbetti; experiment: B.7 Orchid Thrips, floral-immersion test; settings: 300 ppm; adult thrips, 72 hours after treatment
Method: Dichromothrips corbetti adults used for bioassay were obtained from a colony maintained continuously under laboratory conditions. For testing purposes, the test compound was diluted in a 1:1 mixture of acetone:water (vol:vol), plus Kinetic at a rate of 0.01% v/v.
Thrips potency of each compound was evaluated by using a floral-immersion technique. Each orchid petal was dipped into treatment solution and allowed to dry in Petri dishes. Treated petals were placed into individual re-sealable plastic along with about 20 adult thrips. All test arenas were held under dark condition and a temperature of about 28° C. for duration of the assay. The percent mortality was recorded 72 hours after treatment.

[3] = tested on: Heliothis virescens; experiment: B.4 Tobacco Budworm, microtiter plate diet test; settings: 2500 ppm; egg and larval mortality, 5 days
Procedure, shortened: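 Compounds in 25% DMSO/75% water sprayed at various concentrations onto diet in microtiter wells each holding 15-25 H. virescens eggs, two replicates. Plates kept 5 days at about 28±1 °C and 80±5% relative humidity; egg and larval mortality then scored visually.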

[4] = tested on: Plutella xylostella; experiment: B.6 Diamond Back Moth, cabbage leaf disc dip test; settings: 300 ppm; 3rd instar larvae, 72 hours after treatment
Method: The active compound was dissolved at the desired concentration in a mixture of 1:1 (vol:vol) distilled water:acetone. Surfactant (Kinetic) was added at a rate of 0.01% (vol/vol). The test solution was prepared at the day of use. Cabbage leaf discs (60 mm in diameter) were dipped in test solution and air-dried. Treated leaves were placed in petri dishes lined with moistened filter paper and inoculated with ten 3rd instar larvae. Mortality was recorded 72 hours after treatment. Feeding damages were also recorded using a scale of 0-100%.

[5] = tested on: Spodoptera eridania; experiment: B.11 Southern Armyworm 2nd instar larvae, lima bean foliar spray test; settings: 300 ppm, 4 days after treatment
Method: The active compounds were formulated by a Tecan liquid handler in 100% cyclohexanone as a 10′000 ppm solution supplied in tubes. The 10′000 ppm solution was serially diluted in 100% cyclohexanone to make interim solutions. These served as stock solutions for which final dilutions were made by the Tecan in 50% acetone:50% water (v/v) into 10 or 20 ml glass vials. A nonionic surfactant (Kinetic®) was included in the solution at a volume of 0.01% (v/v). The vials were then inserted into an automated electrostatic sprayer equipped with an atomizing nozzle for application to plants/insects. Lima bean plants (variety Sieva) were grown 2 plants to a pot and selected for treatment at the 1st true leaf stage. Test solutions were sprayed onto the foliage by an automated electrostatic plant sprayer equipped with an atomizing spray nozzle. The plants were dried in the sprayer fume hood and then removed from the sprayer. Each pot was placed into perforated plastic bags with a zip closure. Ten to 11 armyworm larvae were placed into the bag and the bags zipped closed. Test plants were maintained in a growth room at about 25° C. and about 20-40% relative humidity for 4 days, avoiding direct exposure to fluorescent light (14:10 light:dark photo-period) to prevent trapping of heat inside the bags. Mortality and reduced feeding were assessed 4 days after treatment, compared to untreated control plants.

[6] = tested on: Myzus persicae; experiment: B.3 Green Peach Aphid (mixed life stages), systemic artificial diet test; settings: 2500 ppm; treated aphid diet, 3 days
Procedure, shortened: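 Compounds, formulated in 25% DMSO/75% water, were mixed at several concentrations into liquid artificial diet under a membrane, two replicates. 5–8 adult aphids fed on treated diet for 3 days at about 23±1 °C, 50±5% RH. Mortality and fecundity were scored visually.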

[7] = tested on: Anthonomus grandis; experiment: B.1 Boll weevil (Anthonomus grandis), 96-well microtiter plate diet test; settings: 2500 ppm; egg and larval mortality, 5 days

Measured: mortality in comparison with untreated controls

N#Cc1c(NC2=NOC(c3cc(Cl)cc(Cl)c3)(C(F)(F)F)C2)cccc1C(=O)NC1CC1 (stereo not drawn) [I-94]
not listed: [6] | [7]
at least 75%: all other assays above

COc1ccc(NC2=NOC(c3cc(Cl)cc(Cl)c3)(C(F)(F)F)C2)cc1C(=O)NC1(C#N)CC1 (stereo not drawn) [I-90]
not listed: [2] | [3]
at least 75%: all other assays above

CCN(C(=O)c1cc(NC2=NOC(c3cc(Cl)c(F)c(Cl)c3)(C(F)(F)F)C2)ccc1Cl)c1ccccc1 (stereo not drawn) [I-99]
not listed: [6]
at least 75%: all other assays above

N#CC1(NC(=O)c2cc(NC3=NOC(c4ccc(OC(F)(F)F)c(Cl)c4)(C(F)(F)F)C3)ccc2Cl)CC1 (stereo not drawn) [I-151]
not listed: [1] | [6]
at least 75%: all other assays above

O=C(Nc1ccc(C(F)(F)F)cc1Br)c1cc(NC2=NOC(c3ccc(F)c(Cl)c3)(C(F)(F)F)C2)ccc1Cl (stereo not drawn) [I-53]
at least 75%: [2] | [3] | [5] | [7]

Cc1ccc(NC2=NOC(c3cc(Cl)cc(Cl)c3)(C(F)(F)F)C2)cc1C(=O)Nc1ccc(F)cc1F (stereo not drawn) [I-64]
at least 75%: [2] | [4] | [5]

O=C(Nc1ncc(F)cc1F)c1cc(NC2=NOC(c3cc(Cl)c(F)c(Cl)c3)(C(F)(F)F)C2)ccn1 (stereo not drawn) [I-171]
not listed: [1] | [6]
at least 75%: all other assays above

O=C(Nc1ccc(F)cc1F)c1cc(NC2=NOC(c3cc(Cl)cc(Cl)c3)(C(F)(F)F)C2)cnc1Cl (stereo not drawn) [I-73]
at least 75%: [2] | [4] | [5]

N#Cc1c(NC2=NOC(c3cc(Cl)cc(Cl)c3)(C(F)(F)F)C2)cccc1C(=O)NCC(F)(F)F (stereo not drawn) [I-86]
at least 75%: [1] | [2] | [4] | [5]

O=C(NC1CS(=O)(=O)C1)c1cc(NC2=NOC(c3cc(Cl)c(F)c(Cl)c3)(C(F)(F)F)C2)ccc1Cl (stereo not drawn) [I-36]
at least 75%: [2] | [4] | [5]

Cc1cc(C(F)(C(F)(F)F)C(F)(F)F)ccc1NC(=O)c1cc(NC2=NOC(c3ccc(F)c(Cl)c3)(C(F)(F)F)C2)ccc1Cl (stereo not drawn) [I-44]
not listed: [1] | [6]
at least 75%: all other assays above
